Experimental data from PubChem BioAssay AID1259415 (National Center for Advancing Translational Sciences (NCATS), 2018).
The campaign covered roughly 410,000 compounds. About 18,000 (4.4%) were called active. This list was built around the results that the source calls inconclusive (neither active nor inactive); the mix of calls is not that of the screen. Rule as the data show it: active = activity change below about -60%; inconclusive = no clear call, values can overlap the other calls; inactive = above about -39%.

test: qHTS Assay for inhibitors of the human cytomegalovirus (HCMV); settings: HFF cells, HCMV-luciferase reporter, 72 h; at 57.5 µM; stronger effect = lower value
Procedure, shortened: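 Screen run at 2 compound doses on HFFs infected with reporter HCMV, MOI 1 PFU/cell. Luciferase activity from cell lysates at 72 h post infection gave inhibition relative to buffer-only and Salinomycin wells.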
% is scaled to controls: 0 for no effect and ±100 for the full control effect.

| Structure (SMILES) | activity change, negative = inhibition |
| --- | --- |
| CCc1cc2c(N3CCCCC3)ncnc2s1 | inactive: -25.9% |
| COc1ccc(NC(=O)COC(=O)CC2CC3CCC2C3)c([N+](=O)[O-])c1 (stereo not given) | inconclusive: -41.6% |
| O=C(O)C1=C(C(=O)Nc2cc(C(F)(F)F)ccc2Cl)CCCC1 | inconclusive: -59.4% |
| O=C(c1ccc(S(=O)(=O)N2CCc3ccccc3C2)cc1)N1CCCCC1 | active: -62.4% |
| C=CCn1c(=N)n(CC(=O)c2ccc(Br)cc2)c2ccccc21 | inactive: 51.1% |
| CCOC(=O)c1c(N)sc2c1CCC(C)C2 (stereo not given) | inconclusive: -45.7% |
| CC(C)C(NC(=O)c1ccc(C(C)(C)C)cc1)C(=O)NCC1(N(C)C)CCCCC1 (stereo not given) | inactive: -27.3% |
| Cc1ccc(NC(=O)Nc2nnc(Cc3ccc([N+](=O)[O-])cc3)s2)cc1C | inconclusive: -56.6% |
| Cn1nc(C(=O)N2CCN(c3ccc(Cl)cc3)CC2)c2c1-c1ccccc1S(=O)(=O)C2 | inconclusive: -52.6% |
| COc1ccc(OCc2cc(C(=O)NC(C)Cc3cnccn3)no2)c(Cl)c1 (stereo not given) | inactive: -25.8% |
| COc1ccccc1N(CCOc1ccccc1)S(=O)(=O)c1ccccc1 | inconclusive: -52.6% |
| O=[N+]([O-])c1cccc2[nH]ncc12 | inactive: -34.9% |
| O=C(N1CCN(c2ccccc2F)CC1)C1(c2cccs2)CCOCC1 | inconclusive: -55.3% |
| CC(=O)Nc1ccc(NC(=O)C(C)OC(=O)c2c(C)nn(-c3ccccc3)c2Cl)cc1 (stereo not given) | inactive: 14.2% |
| COc1ccc(-n2nc(C#N)c(Cl)cc2=O)cc1 | active: -101% |
| CSc1ccc2c(c1)N(CCC1CCCCN1C)c1ccccc1S2 (stereo not given) | inconclusive: -58.8% |
| COc1ccc(CCNC(=O)CCCNC(=O)Cn2cnc3sc(C)c(C)c3c2=O)cc1OC | inconclusive: -49.9% |
| CCOC(=O)CSC1=C(C#N)C(c2ccc(C)cc2)C2=C(CCCC2=O)N1 (stereo not given) | inconclusive: -48.9% |
| COc1ccc(N(C(=O)c2ccc(F)cc2)C2=CC3CCC(C2)N3C)cc1 (stereo not given) | inconclusive: -52.1% |
| O=C(CCCN1C(=O)/C(=C/c2ccccc2Cl)SC1=S)NNC(=O)c1ccc(Cl)cc1 | active: -74.5% |
| COc1ccc(OC)c(NC(=O)NCCc2c[nH]c3ccccc23)c1 | active: -86.9% |
| COc1ccc(C(=O)NCC(=O)OCCOc2ccc(Cl)cc2)cc1OC | inconclusive: -49.2% |
| COc1ccc(Oc2nc(C(F)(F)F)nc3ccccc23)cc1 | inconclusive: -40.9% |
| NC1=NC(=O)/C(=C/c2cn(Cc3ccccc3)c3ccccc23)S1 | inconclusive: -50.4% |
| COC(=O)C1=C(c2cccc(OCc3ccccc3)c2)C[C@@H]2CC[C@H]1N2C(=O)NCc1ccccc1C(F)(F)F | inconclusive: -42.1% |
| CCOc1ccc(-c2nnn(CC(=O)NCc3ccc(C)cc3)n2)cc1 | inconclusive: -42.8% |
| O=C(Nc1cccc(C(F)(F)F)c1)c1cnccn1 | inconclusive: -48.9% |
| CNc1ccccc1C(C)(C)c1cc(-c2cccc(Br)c2)no1 | inconclusive: -57.7% |

Retrieved by compound from above:

| Structure (SMILES) | activity change, negative = inhibition |
| --- | --- |
| COC(=O)C1=C(c2cccc(OCc3ccccc3)c2)C[C@@H]2CC[C@H]1N2C(=O)NCc1ccccc1C(F)(F)F | inconclusive: -42.1% |
| COc1ccc(OC)c(NC(=O)NCCc2c[nH]c3ccccc23)c1 | active: -86.9% |
| COc1ccc(Oc2nc(C(F)(F)F)nc3ccccc23)cc1 | inconclusive: -40.9% |
| O=C(O)C1=C(C(=O)Nc2cc(C(F)(F)F)ccc2Cl)CCCC1 | inconclusive: -59.4% |
| NC1=NC(=O)/C(=C/c2cn(Cc3ccccc3)c3ccccc23)S1 | inconclusive: -50.4% |

Next part.

| Structure (SMILES) | activity change, negative = inhibition |
| --- | --- |
| Cc1ccc(C2CC(c3cccs3)=NN2S(=O)(=O)c2ccc(C)cc2)cc1 (stereo not given) | inconclusive: -45.2% |
| CCOC(=O)C1CCCN(CC(=O)c2ccc(F)cc2)C1 (stereo not given) | inconclusive: -47.2% |
| O=C(Nc1ccn(Cc2ccc(F)cc2)n1)c1ccncc1 | inconclusive: -42.4% |
| OC(CN=c1sc2ccccc2n1CC(O)COc1ccccc1)COc1ccccc1 (stereo not given) | inconclusive: -54.5% |
| CC1CCN(S(=O)(=O)c2ccc(C(=O)N3CCN(c4ccccc4F)CC3)cc2)CC1 | inconclusive: -44.7% |
| Cc1c(N)cccc1N | inconclusive: -44.6% |
| Cc1ccccc1CNc1ccc(C(CC(N)=O)NC(=O)c2ccccc2)cc1[N+](=O)[O-] (stereo not given) | inconclusive: -42.8% |
| CC(C)CN(C(=O)COC(=O)c1cccs1)c1c(N)n(Cc2ccccc2)c(=O)[nH]c1=O | inconclusive: -43.9% |
| COc1ccccc1NC(=O)COC(=O)c1c(C)nn(-c2ccccc2)c1C | inactive: -9.89% |
| Cc1cccc2cc(CN(CC3CCCO3)C(=O)c3cccs3)c(=O)[nH]c12 (stereo not given) | inconclusive: -40.5% |
| O=C(Nc1ccccc1OC(F)F)c1ccc(-n2cncn2)c([N+](=O)[O-])c1 | inactive: -9.69% |
| S=c1[nH]nc(-c2cc(-c3ccccc3)n[nH]2)n1/N=C/c1ccccc1 | inactive: -4.44% |
| CC(C)(C)c1ccc(C(=O)Nc2ccc3c(c2)CCCN3C(=O)c2cccs2)cc1 | active: -80.2% |
| CCCOc1cccc(C(=O)N(Cc2ccccc2)C2CCS(=O)(=O)C2)c1 (stereo not given) | active: -65.7% |
| CCOc1ccc(S(=O)(=O)N2CCCC(C(=O)Nc3cccc(C)c3)C2)cc1 (stereo not given) | inactive: 58.2% |
| CS(=O)(=O)c1ccc(C(=O)Nc2ccc(S(=O)(=O)N3CCCCC3)cc2)cc1 | inactive: -27.9% |
| CCOC(=O)C1CCN(C(=O)COc2ccc(N(C)S(=O)(=O)c3ccc(C)cc3)cc2)CC1 | active: -102% |
| Cc1cccc(Nc2nnc(SCC(=O)c3ccc(Br)s3)s2)c1C | inconclusive: -52.6% |
| O=C(O)c1ccc(Cl)c(NC(=O)C2CCN(S(=O)(=O)c3cccs3)CC2)c1 | inactive: -36.1% |
| CCOC(=O)CC(NC(=O)Cn1nnc(-c2ccccc2)n1)c1ccc(OC)cc1 (stereo not given) | inconclusive: -41% |
| CC(C)(C)C(=O)Cn1c(=O)n(-c2ccc(F)cc2F)c(=O)c2sccc21 | inconclusive: -50.4% |
| Cn1cc(/C=N/n2cnc3scc(-c4ccc(Cl)cc4)c3c2=O)c2ccccc21 | inconclusive: -58.7% |
| Cc1ccccc1NC(=S)N(CCCN1CCOCC1)Cc1cccnc1 | inconclusive: -47.3% |
| CCN1C(=O)c2ccccc2Sc2ccc(C(=O)O)cc21 | inactive: 33.9% |
| Cc1noc(C)c1CSc1nc2sc3c(c2c(=O)n1C)CCCC3 | inconclusive: -50.5% |
| COc1ccc(Nc2cccc3ccccc23)cc1 | inactive: 14.5% |
| COc1cc(/C=C2\CC/C(=C\c3cc(OC)c(O)c(OC)c3)C2=O)cc(OC)c1O | active: -97.5% |
